Reference: patent publication EP1582590A1, “Sequential intracellular screening method” (Aptanomics, priority 2004, dated 2005)
At least one compound was matched to its structure with a doubt left.

Tests used:
[1] = tested on: lexA-TGFβ-R and B42-FKBP12; test: dual (duplex) two-hybrid assay, two yeast populations mixed in one well, luc signal; type: cell-based; settings: induction time 5h; for effect on luc two-hybrid signal: 10µL of each yeast suspension in the same well, normalized to DMSO
Method: (§1) Yeast strains TB50 WT and TB50 ERG6 were transformed as described in Figure 1. They were grown from frozen transformants. For each strain, the two yeast cultures containing the two protein interactions were mixed together and delivered into a microwell plate. […] Experiments were performed in duplicates. The values are normalized with the signals obtained in presence of DMSO.
(§2) 20µl of yeast cultures were delivered into 96 well half area white plates (Coming-Costar, ref. 3693). When applicable, 2µl of either DMSO 10% or 10µM of small molecules were added. 2µl of Galactose 20% were added to the wells to induce the expression of the preys. When two different yeast cultures were mixed in a single well, 10µl of each culture were used, to reach a total of 20µl. Plates were incubated at room temperature and left non-agitated for various times. To reveal the activity of both luciferases, a Dual-Glo™ luciferase assay system was used (Promega, ref. E2920) according to the instructions of the manufacturer. Briefly, to lyse the yeast and reveal the activity of firefly luciferase, 25µl of reagent was added and the plates were incubated for another 40 to 60min at room temperature, without agitation, before being read in a luminometer. To reveal the activity of Renilla luciferase, 25µl of "stop&glo reagent" were added to the wells and the plates were incubated for another 60min at room temperature, without agitation, before a second reading. Luminescence was measured by a Trilux (Perkin Elmer) setting the integration at 1sec/well. Values are given in LCPS (1LCPS = 100 counts per sec).
Indeed, while a decrease in gene expression can be exerted by a specific regulatory mechanism or by the specific action of a molecule, it can also be achieved by a non-specific alteration of the cell physiology or simply by the killing of this cell. Therefore, for a HTS application of the assay of the invention, it is critical to distinguish rapidly true inhibitors of a protein interaction from compounds that inhibit two-hybrid signals because of their toxicity.

[2] = biological target: T1, interaction between Trα and NCoR (Homo sapiens, UniProt P10827); test: dual (duplex) two-hybrid assay, two yeast populations mixed in one well, ruc signal; type: cell-based; settings: 10µL of each yeast suspension in the same well, induction time 5h, normalized to DMSO
T1 construct: expressed in transfected cells; host or cells: Saccharomyces cerevisiae TB50 (WT and ERG6-deleted)
T1 sequence (P10827 1-410 isoform P10827-2): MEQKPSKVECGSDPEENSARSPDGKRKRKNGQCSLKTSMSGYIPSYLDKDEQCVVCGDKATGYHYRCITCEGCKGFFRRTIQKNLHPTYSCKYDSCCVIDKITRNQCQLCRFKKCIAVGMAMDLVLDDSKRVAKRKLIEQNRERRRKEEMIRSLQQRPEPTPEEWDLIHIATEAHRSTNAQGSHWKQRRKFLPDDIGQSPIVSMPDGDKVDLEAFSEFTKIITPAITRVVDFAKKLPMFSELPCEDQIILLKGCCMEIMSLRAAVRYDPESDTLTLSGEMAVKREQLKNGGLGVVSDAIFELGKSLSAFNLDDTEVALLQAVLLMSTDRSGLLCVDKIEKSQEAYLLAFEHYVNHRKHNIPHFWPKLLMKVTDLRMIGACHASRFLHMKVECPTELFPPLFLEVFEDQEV
Method: as §1
as §2, with “To reveal the activity of both luciferases, a Dual-Glo™ luciferase assay system was used (Promega, ref. E2920) according to the instructions of the manufacturer.” left out, “Values are given in LCPS (1LCPS = 100 counts per sec).” left out

C=CC[C@@H]1/C=C(\C)C[C@H](C)C[C@H](OC)[C@H]2O[C@@](O)(C(=O)C(=O)N3CCCC[C@H]3C(=O)O[C@H](/C(C)=C/[C@@H]3CC[C@@H](O)[C@H](OC)C3)[C@H](C)[C@@H](O)CC1=O)[C@H](C)C[C@@H]2OC [FK506]
effect on luc two-hybrid signal [1]: selective inhibition of the cognate protein interaction
inhibition of protein interaction in ERG6 deleted strain compared with parental strain ([1]; TB50 ERG6 vs TB50 WT): higher inhibitions

NC[C@H]1O[C@H](O[C@H]2[C@H](O)[C@@H](O[C@H]3O[C@H](CO)[C@@H](O)[C@H](N)[C@H]3O)[C@H](N)C[C@@H]2N)[C@H](O)[C@@H](O)[C@@H]1O [kanamycin]
effect on luc two-hybrid signal [1]: affected neither luc nor ruc signals
effect on ruc two-hybrid signal [2]: affected neither luc nor ruc signals
